The data set can be described thus: general procedure: solution-phase peptide synthesis; DCC/HOBT; azide fragment coupling (t-butyl nitrite); ONP active ester. As to conditions: acetate salt.

[ ]: non-standard residue; d: D form. The star is where a group is joined. Nle = CCCC[C@H](N)C(=O)O; Cbz = O=C(OCc1ccccc1)*; Boc = CC(C)(C)OC(=O)*

For the substance BOC-Arg(H^+)-Lys-(CBZ)-Gln-Nle-NHNH2, the step yield (late stage modification step) is on record as 92%.
Regarding BOC-Arg(H^+)-Lys-(CBZ)-Gln-Nle-OMe, the step yield (coupling step) was determined as 56%.
With Boc-AVK(Cbz)K(Cbz)-NH2, the step yield (late stage modification step) is reported as 98%.
On to Boc-AVK(Cbz)K(Cbz)-OMe, for which the step yield (coupling step) is given as 84%.
With Boc-K(Cbz)Q[Nle]AVK(Cbz)-NH2, under “coupling step”, the step yield turned out to be 85%.

For the origin of these results see patent publication US4737487A (Beecham Group p.l.c., priority 1984, dated 1988).
